# Inconclusive results, whose numbers are uncertain, are shown with a selection of clear calls. For some of these results: A potency beside an inconclusive call is a rough fit, not a confirmed value. For some of these results: A note “side channel” means that the fit belongs to a control or component signal, not to the main read-out. The source made the active and inactive calls. Unless noted, the call rests on the fitted dose curve; in most records, active means well fitted curve in the direction sought with a large enough effect; inconclusive means small, poorly fitted or top-dose-only effect, or another doubt; inactive means no such curve, though single readings can be large; an effect the other way counts as inactive or inconclusive.
# Amino acid sequences for entries named in this document (tags omitted). A change or cut given only in a name is not applied to a line headed by its entry.
# UniProt P11712, whole entry, looked up: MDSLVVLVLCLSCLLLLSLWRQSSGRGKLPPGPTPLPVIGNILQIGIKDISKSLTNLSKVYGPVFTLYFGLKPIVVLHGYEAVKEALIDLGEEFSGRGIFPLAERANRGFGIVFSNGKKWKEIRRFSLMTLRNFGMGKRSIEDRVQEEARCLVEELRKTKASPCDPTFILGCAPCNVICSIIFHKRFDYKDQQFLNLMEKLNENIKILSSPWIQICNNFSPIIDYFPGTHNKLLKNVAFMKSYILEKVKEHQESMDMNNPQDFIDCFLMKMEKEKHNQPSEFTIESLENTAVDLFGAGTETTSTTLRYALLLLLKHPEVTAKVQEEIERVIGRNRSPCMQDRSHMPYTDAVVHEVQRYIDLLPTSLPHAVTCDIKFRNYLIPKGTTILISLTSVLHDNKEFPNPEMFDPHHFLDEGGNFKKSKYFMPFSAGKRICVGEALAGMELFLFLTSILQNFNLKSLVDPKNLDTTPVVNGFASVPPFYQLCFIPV
# UniProt Q9HAZ1: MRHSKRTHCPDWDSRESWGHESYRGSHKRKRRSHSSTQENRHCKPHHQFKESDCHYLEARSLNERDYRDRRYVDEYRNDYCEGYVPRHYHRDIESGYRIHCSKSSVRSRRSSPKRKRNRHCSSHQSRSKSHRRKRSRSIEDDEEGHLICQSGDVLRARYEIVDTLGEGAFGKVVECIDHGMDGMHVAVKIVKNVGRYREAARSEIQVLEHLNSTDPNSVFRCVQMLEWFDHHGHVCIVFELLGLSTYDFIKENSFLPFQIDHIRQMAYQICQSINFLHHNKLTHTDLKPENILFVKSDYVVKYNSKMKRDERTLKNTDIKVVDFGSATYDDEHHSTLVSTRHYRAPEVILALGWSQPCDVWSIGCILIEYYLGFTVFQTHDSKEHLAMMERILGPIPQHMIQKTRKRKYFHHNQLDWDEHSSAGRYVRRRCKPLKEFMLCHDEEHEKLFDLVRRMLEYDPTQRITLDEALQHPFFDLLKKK
# UniProt O94782: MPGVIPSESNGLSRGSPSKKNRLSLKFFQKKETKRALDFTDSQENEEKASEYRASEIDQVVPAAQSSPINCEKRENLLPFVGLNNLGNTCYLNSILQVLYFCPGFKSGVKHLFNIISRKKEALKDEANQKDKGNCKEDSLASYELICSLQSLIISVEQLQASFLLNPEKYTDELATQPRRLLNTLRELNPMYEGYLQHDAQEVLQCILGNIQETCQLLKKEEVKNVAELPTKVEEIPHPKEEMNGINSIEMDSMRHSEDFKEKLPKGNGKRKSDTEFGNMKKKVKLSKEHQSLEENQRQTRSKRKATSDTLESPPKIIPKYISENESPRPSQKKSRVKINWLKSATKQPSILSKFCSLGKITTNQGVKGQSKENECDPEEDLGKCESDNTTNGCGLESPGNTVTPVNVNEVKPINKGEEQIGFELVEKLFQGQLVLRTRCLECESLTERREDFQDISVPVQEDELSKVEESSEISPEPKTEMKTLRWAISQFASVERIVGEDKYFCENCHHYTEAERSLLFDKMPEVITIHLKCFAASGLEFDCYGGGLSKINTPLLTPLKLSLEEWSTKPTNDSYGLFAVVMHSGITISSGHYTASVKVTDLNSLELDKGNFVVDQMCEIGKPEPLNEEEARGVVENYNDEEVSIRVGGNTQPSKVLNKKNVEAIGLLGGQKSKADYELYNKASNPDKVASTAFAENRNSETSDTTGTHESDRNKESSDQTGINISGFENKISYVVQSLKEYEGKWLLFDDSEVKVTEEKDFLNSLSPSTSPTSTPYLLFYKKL
# UniProt P54132: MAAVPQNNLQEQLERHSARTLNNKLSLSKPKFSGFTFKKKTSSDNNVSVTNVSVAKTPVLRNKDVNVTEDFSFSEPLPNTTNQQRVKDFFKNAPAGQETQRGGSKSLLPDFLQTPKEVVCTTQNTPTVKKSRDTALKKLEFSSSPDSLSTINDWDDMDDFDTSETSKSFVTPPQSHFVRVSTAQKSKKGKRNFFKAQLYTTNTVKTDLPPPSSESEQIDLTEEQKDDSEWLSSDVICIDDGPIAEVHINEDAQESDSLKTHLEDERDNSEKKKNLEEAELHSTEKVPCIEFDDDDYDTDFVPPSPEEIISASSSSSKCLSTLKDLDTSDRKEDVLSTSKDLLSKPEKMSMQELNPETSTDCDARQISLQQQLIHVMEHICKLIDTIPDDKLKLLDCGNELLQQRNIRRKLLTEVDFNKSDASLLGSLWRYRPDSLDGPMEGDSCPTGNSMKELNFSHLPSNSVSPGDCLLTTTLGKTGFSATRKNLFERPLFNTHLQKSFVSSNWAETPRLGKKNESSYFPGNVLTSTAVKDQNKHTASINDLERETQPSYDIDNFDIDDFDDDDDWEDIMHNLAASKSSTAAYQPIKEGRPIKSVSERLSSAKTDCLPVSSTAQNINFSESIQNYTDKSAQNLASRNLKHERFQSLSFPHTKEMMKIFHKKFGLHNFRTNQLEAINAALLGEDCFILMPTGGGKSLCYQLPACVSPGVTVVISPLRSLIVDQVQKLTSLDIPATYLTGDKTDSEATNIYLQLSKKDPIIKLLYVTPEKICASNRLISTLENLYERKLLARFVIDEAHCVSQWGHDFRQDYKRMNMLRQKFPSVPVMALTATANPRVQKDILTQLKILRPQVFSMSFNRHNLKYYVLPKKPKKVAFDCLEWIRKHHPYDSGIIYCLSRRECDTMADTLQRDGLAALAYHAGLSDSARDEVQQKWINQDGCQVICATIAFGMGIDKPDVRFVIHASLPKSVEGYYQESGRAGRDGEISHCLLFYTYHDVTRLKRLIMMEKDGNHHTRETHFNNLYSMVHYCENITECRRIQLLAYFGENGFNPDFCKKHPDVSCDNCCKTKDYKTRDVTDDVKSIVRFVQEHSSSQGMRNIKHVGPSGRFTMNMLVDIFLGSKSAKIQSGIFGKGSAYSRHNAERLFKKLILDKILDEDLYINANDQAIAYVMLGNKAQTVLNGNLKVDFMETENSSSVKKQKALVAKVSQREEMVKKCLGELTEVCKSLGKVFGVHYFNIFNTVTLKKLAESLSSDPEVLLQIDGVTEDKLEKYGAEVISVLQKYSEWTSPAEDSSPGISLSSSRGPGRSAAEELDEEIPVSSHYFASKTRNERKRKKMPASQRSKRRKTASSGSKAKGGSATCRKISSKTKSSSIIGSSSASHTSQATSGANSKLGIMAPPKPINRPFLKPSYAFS
# UniProt P08684, whole entry, looked up: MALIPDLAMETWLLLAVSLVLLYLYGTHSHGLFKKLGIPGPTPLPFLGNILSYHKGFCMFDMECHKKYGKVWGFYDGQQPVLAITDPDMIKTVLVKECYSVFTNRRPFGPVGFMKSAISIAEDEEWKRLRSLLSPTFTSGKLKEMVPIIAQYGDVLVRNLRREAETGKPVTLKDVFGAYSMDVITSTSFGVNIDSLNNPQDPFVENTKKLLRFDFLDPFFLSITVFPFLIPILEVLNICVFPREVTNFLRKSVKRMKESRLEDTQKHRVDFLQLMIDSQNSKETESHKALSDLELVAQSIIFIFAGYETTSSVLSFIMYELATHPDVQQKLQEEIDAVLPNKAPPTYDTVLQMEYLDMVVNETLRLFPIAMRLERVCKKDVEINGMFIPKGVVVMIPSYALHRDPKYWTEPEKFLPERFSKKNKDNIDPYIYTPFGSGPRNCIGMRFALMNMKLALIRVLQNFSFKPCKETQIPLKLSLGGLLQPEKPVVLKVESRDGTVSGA
# UniProt P10635, whole entry, looked up: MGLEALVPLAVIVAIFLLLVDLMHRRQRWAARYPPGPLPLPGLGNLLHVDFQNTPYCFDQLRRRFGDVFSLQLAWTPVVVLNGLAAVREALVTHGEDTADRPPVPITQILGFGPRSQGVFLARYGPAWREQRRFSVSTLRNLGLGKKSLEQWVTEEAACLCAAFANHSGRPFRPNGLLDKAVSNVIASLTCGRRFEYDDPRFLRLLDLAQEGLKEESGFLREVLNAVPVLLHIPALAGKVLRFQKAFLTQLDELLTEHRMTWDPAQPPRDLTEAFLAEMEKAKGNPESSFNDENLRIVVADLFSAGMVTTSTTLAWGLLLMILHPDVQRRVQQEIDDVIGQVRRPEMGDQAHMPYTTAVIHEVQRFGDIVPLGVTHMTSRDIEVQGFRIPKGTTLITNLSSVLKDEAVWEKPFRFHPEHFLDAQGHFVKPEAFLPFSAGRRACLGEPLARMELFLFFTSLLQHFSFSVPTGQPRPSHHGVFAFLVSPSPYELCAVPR
# UniProt P33261, whole entry, looked up: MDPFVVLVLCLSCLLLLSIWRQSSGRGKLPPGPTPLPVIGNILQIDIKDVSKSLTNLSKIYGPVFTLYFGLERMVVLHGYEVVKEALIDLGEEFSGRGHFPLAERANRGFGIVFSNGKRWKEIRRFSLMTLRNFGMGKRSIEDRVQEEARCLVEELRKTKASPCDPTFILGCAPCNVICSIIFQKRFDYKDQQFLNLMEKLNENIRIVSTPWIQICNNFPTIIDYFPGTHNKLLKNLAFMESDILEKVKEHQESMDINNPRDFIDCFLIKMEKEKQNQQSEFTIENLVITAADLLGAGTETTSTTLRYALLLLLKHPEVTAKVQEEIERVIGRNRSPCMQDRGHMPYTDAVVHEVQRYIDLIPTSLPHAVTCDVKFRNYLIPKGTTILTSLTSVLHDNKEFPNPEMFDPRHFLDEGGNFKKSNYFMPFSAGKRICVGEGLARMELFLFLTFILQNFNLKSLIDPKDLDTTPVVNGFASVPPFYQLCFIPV
# UniProt P05177, whole entry, looked up: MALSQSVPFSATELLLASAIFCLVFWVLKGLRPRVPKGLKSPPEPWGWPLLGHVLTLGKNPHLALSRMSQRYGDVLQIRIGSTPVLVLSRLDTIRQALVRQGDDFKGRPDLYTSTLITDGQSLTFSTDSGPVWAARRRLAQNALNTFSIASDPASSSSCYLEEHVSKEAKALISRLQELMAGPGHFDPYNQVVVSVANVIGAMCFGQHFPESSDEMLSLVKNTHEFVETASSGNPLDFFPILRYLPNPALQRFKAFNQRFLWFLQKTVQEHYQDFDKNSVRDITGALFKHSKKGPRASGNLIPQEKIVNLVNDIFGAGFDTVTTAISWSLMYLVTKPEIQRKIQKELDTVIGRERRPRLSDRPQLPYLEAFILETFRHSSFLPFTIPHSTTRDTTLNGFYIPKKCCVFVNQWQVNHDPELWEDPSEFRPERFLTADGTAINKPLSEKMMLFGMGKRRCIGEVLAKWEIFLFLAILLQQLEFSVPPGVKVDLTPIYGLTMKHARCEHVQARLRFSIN
# UniProt O75469: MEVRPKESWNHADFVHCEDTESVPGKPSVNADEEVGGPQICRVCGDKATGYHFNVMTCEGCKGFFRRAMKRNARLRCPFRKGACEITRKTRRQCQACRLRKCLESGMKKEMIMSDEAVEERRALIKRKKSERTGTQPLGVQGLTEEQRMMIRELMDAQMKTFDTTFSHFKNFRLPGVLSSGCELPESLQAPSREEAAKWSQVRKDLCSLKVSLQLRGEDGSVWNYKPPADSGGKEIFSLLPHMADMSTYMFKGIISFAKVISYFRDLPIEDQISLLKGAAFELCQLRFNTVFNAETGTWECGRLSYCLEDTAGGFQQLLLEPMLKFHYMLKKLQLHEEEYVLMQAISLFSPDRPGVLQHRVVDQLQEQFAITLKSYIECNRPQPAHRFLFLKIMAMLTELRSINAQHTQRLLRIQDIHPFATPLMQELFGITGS
# UniProt Q07343: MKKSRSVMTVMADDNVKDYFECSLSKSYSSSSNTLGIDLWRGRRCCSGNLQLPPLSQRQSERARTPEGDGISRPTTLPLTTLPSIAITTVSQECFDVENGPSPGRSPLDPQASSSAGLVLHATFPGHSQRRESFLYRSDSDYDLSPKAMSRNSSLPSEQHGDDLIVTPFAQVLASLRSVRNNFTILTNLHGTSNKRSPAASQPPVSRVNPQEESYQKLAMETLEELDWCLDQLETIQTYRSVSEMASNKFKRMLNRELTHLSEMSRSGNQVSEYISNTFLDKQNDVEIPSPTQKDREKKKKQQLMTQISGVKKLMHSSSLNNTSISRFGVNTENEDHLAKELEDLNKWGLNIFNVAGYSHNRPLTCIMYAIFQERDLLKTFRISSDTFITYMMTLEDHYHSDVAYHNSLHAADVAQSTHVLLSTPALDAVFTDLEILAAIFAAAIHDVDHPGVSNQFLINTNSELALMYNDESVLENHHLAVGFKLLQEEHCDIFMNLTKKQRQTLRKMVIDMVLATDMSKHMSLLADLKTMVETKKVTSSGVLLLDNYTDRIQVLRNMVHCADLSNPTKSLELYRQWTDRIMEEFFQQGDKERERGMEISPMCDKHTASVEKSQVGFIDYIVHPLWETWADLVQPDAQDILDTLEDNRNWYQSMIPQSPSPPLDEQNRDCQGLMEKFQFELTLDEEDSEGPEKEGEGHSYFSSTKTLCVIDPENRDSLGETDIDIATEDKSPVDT
# What was measured:
# [1] = Stat Signaling Pathway (AID 446; active means well fitted curve in either direction with a large enough effect, not every such curve was filed as active; inconclusive means small, poorly fitted or top-dose-only effect, or another doubt;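 further: ME-180 cervical cancer cells given 40 pM IL-6 alongside compound; SIE-controlled beta-lactamase reporter measured as 460/530 nm FRET emission ratio; on the % scale 0 is the no-effect control and ±100 the full control effect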); conditions: ME-180 SIE beta-lactamase reporter, IL-6 stimulated, 5 h; at 7.69 µM (top of the series) unless noted
# Procedure, shortened: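 ME-180 SIE-bla cells; overnight plating; cpd + IL-6 40 pM, 5 h, 37 C; LiveBLAzer 2.5 h RT; 460/530 nm emission ratio. Normalized to 300 pM IL-6 and 125 nM JAK inhibitor controls.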
# [2] = target: Cytochrome P450 2C9 (Homo sapiens) (UniProt P11712); assay: qHTS Assay for Inhibitors and Substrates of Cytochrome P450 2C9 (AID 883); further: potency means the concentration at half of the fitted maximal effect; nearly all actives have a fitted effect of over 60% in size
# Procedure, shortened: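 Turnover of Luciferin-H (100uM, KM) by 10nM human CYP2C9 was measured over 60 min at 37C with NADPH regeneration; inhibitors and some substrates reduce luminescence. Data normalized to sulphaphenazole 57uM.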
# [3] = qHTS Assay for Lipid Storage Modulators (AID 1519; calls by dose curve; further: on the % scale 0 is the no-effect control and ±100 the full control effect); conditions: Drosophila S3 cells, BODIPY lipid droplet/cell ratio, laser cytometry, cells loaded with oleic acid; activity change, negative = inhibition: at 57.5 µM (top of the series) unless noted
# Procedure, shortened: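 Cells seeded at 5,000 per well were treated with compounds over a concentration series and loaded with oleic acid (400 uM, as added). Lipid droplet fluorescence (488 nm excitation, 500-530 nm channel) was read by laser-scanning cytometry and normalized to 20 uM Triacsin C.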
# [4] = target: Dual specificity protein kinase CLK4 (Homo sapiens) (UniProt Q9HAZ1); assay: qHTS Assay for Inhibitors of CDC-like Kinase 4 (ADP-FP Assay) (AID 1795);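 further: recombinant human CLK4 phosphorylating RS repeat peptide at 1 µM ATP; on the % scale 0 is the no-effect control and ±100 the full control effect; nearly all actives have a fitted effect of over 60% in size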
# Procedure, shortened: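 Inhibition of ADP formation by 6.25 nM Clk4 is measured using 1 uM ATP and 100 uM RS repeat peptide over one hour. Produced ADP displaces a fluorescent tracer from antibody, lowering polarization.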
# [5] = target: Ubiquitin carboxyl-terminal hydrolase 1 (Homo sapiens) (UniProt O94782); assay: Inhibitors of USP1/UAF1: Pilot qHTS (AID 504865); further: potency means the concentration at half of the fitted maximal effect; nearly all actives have a fitted effect of over 35% in size
# Procedure, shortened: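 Kinetic fluorescence assay: 1nM USP1/UAF1, 15 min compound preincubation, then 150nM Ub-Rho; 480/540 nm.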
# [6] = qHTS for differential inhibitors of proliferation of Plasmodium falciparum line 7G8 (AID 1815);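 further: potency means the concentration at half of the fitted maximal effect; parasite growth measured after three days of incubation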
# [7] = qHTS for differential inhibitors of proliferation of Plasmodium falciparum line GB4 (AID 1816); conditions: Potency: Plasmodium falciparum GB4 proliferation inhibition;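 further: potency means the concentration at half of the fitted maximal effect; parasite growth measured after 72 h incubation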
# [8] = qHTS for differential inhibitors of proliferation of Plasmodium falciparum line Dd2 (AID 1882); conditions: Potency: Plasmodium falciparum Dd2 proliferation inhibition;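 further: compound exposure of 72 h on infected erythrocytes; plate controls were DMSO vehicle for no effect and 0.29 µM artemisinin for full effect; nearly all actives have a fitted effect of over 65% in size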
# Procedure, shortened: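 SYBR Green I DNA fluorescence read-out, ex 485/em 535 nm. Signals were normalized to 0.29 uM artemisinin and DMSO wells, then corrected using vehicle-only plates flanking each stack. Parasite growth ran 72 h in erythrocytes before lysis.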
# [9] = qHTS for differential inhibitors of proliferation of Plasmodium falciparum line W2 (AID 1883); conditions: Potency: Plasmodium falciparum W2 proliferation inhibition;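 further: potency means the concentration at half of the fitted maximal effect; parasites grown with compound for 72 h before lysis and staining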
# [10] = qHTS for differential inhibitors of proliferation of Plasmodium falciparum line HB3 (AID 1886); conditions: Potency: Plasmodium falciparum HB3 proliferation inhibition;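 further: potency means the concentration at half of the fitted maximal effect; parasites grown with compound for 72 h before SYBR Green readout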
# [11] = target: RecQ-like DNA helicase BLM (Homo sapiens) (UniProt P54132); assay: qHTS Validation Assay for Inhibitors of Bloom's syndrome helicase (BLM) (AID 2364); further: potency means the concentration at half of the fitted maximal effect
# Procedure, shortened: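 Forked 20-bp duplex substrate (200 nM, TAMRA/BHQ-2) plus 2 mM ATP added after 15 min compound preincubation with 50 nM enzyme, pH 8.0, poly(dI-dC) 2.5 ug/ml. Strand separation followed by fluorescence (525/598 nm) over 2 h, normalized to enzyme-free and DMSO controls.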
# [12] = Viability counterscreen for agonist of constitutive androstane receptor (CAR) against the NCATS DSHEA and TCM libraries (AID 1794838); conditions: HepG2 cell viability counterscreen, CAR agonist assay; co-treated with 0.75 µM CAR antagonist;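 further: HepG2 cells with CYP2B6 reporter and hCAR plus 0.75 µM PK11195 antagonist; potency means the concentration at half of the fitted maximal effect; cells exposed to compound for 24 h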
# Procedure, shortened: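 In agonist mode, PK11195 is added at 0.75 uM final to HepG2-CYP2B6-hCAR cells dosed with test substances. Cultures incubate 24 h at 37C before a protease-based fluorogenic viability readout.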
# [13] = target: Cytochrome P450 3A4 (Homo sapiens) (UniProt P08684); assay: qHTS for inhibitors of CYP3A4 against the NCATS DSHEA and TCM libraries (AID 1919971); conditions: recombinant CYP3A4 enzyme activity, luminescence qHTS; further: potency means the concentration at half of the fitted maximal effect
# Procedure, shortened: (§1)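 Light output from converted D-luciferin reports remaining CYP activity. Compounds preincubate with enzyme and substrate for 15 min; NADPH regeneration (1x final) runs the reaction for 30-45 min.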
# [14] = target: Cytochrome P450 2D6 (Homo sapiens) (UniProt P10635); assay: qHTS for inhibitors of CYP2D6 against the NCATS DSHEA and TCM libraries (AID 1919972); further: on the % scale 0 is the no-effect control and ±100 the full control effect
# Procedure, shortened: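 Steps: enzyme plus luciferin substrate dispensed; test substances pinned; 15 min RT; 1x NADPH regenerating solution added, 30–45 min RT protected from light; detection reagent, 30 min RT; luminescence measured. Minus-enzyme wells as background.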
# [15] = target: Cytochrome P450 2C9 (Homo sapiens) (UniProt P11712); assay: qHTS for inhibitors of CYP2C9 against the NCATS DSHEA and TCM libraries (AID 1919973); further: potency means the concentration at half of the fitted maximal effect
# Procedure, shortened: as §1
# [16] = target: Cytochrome P450 2C19 (Homo sapiens) (UniProt P33261); assay: qHTS for inhibitors of CYP2C19 against the NCATS DSHEA and TCM libraries (AID 1919974);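 further: luminescence from luciferin released by CYP2C19 oxidation of a pro-luciferin substrate; potency means the concentration at half of the fitted maximal effect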
# Procedure, shortened: as §1
# [17] = target: Cytochrome P450 1A2 (Homo sapiens) (UniProt P05177); assay: qHTS for inhibitors of CYPIA2 against the NCATS DSHEA and TCM libraries (AID 1919976);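 further: light from luciferin formed by CYP1A2 from a pro-luciferin substrate; on the % scale 0 is the no-effect control and ±100 the full control effect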
# Procedure, shortened: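 In this quantitative HTS, inhibition of recombinant human CYP1A2 was measured as loss of luciferin-derived luminescence. Turnover ran 30-45 min at RT after NADPH regeneration solution was added.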
# [18] = target: Nuclear receptor subfamily 1 group I member 2 (Homo sapiens) (UniProt O75469); assay: Dual reporter qHTS for agonist of Pregnane X Receptor (hPXR) against the NCATS DSHEA and TCM libraries: Luminescence readout (AID 1920059); conditions: hPXR dual reporter cells, luciferase luminescence agonist; at 40 µM (top of the series); further: 0% is about no effect
# Procedure, shortened: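 Luminescent PXR reporter read (ONE-Glo) after a CellTiter-Fluor viability read, following 24 h, 37C treatment of HepG2 cells stably carrying hPXR-Luc.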
# [19] = AP1 Signaling Pathway (AID 357; active means well fitted curve in either direction with a large enough effect, not every such curve was filed as active; inconclusive means small, poorly fitted or top-dose-only effect, or another doubt); conditions: ME-180 AP-1-bla reporter, EGF-induced, beta-lactamase ratio, 5 h; at 7.69 µM (top of the series) unless noted
# Procedure, shortened: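 Modulation of EGF-driven AP-1 transcription was assessed with a beta-lactamase reporter in ME-180 cells. Compound and EC50 EGF were co-incubated 5 hours at 37 °C before 2.5-hour CCF4 loading at room temperature and dual-emission reading.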
# [20] = NFAT Signaling Pathway (AID 444; active means well fitted curve in either direction with a large enough effect, not every such curve was filed as active; inconclusive means small, poorly fitted or top-dose-only effect, or another doubt); conditions: Jurkat NFAT-bla M1, carbachol, beta-lactamase ratio, 5 h; at 7.69 µM (top of the series) unless noted
# Procedure, shortened: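 Read-out: CCF4 FRET ratio (460 nm/530 nm) after 1 h RT dye loading, used for %activity and AC50 from titration series. Cells: Jurkat NFAT-β-lactamase/M1 line, treated with compound plus 1 uM carbachol for 5 h, 37 °C.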
# [21] = qHTS Assay for Identification of Small Molecule Agonists for Hypoxia Response Element Signaling Pathway (AID 914; active means well fitted activation curve with a large enough effect in the signal ratio, with a control signal flat, not every such curve was filed as active; inconclusive means small, poorly fitted or top-dose-only effect, or effect the other way, or a change in a side signal; the % refers to the signal ratio; further: potency means the concentration at half of the fitted maximal effect); conditions: ME-180 (cervical carcinoma) HRE-bla reporter, beta-lactamase ratio, CoCl2, 17 h; activation: active compounds read high
# Procedure, shortened: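 HRE-bla ME-180 assay for agonist-like enhancement of an EC50 CoCl2 stimulus: 17 h at 37 degrees Celsius, CCF4 for 2.5 h, ratiometric 460/530 nm signal converted to %Activity and fitted to AC50.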
# [22] = target: Dual specificity protein kinase CLK4 (Homo sapiens) (UniProt Q9HAZ1); assay: qHTS Assay for Inhibitors of CDC-like Kinase 4 (ADP-Glo Assay) (AID 1771); further: nearly all actives have a fitted effect of over 70% in size; further: potency means the concentration at half of the fitted maximal effect
# Procedure, shortened: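 Kinase reaction: Clk4 at 25 nM, RS repeat peptide substrate at 100 uM, ATP at 1 uM, 1 hr, room temperature. Product ADP detected as luciferase signal via ADP-Glo.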
# [23] = target: 3',5'-cyclic-AMP phosphodiesterase 4B (Homo sapiens) (UniProt Q07343); assay: qHTS Assay for Inhibitors of PDE-IV (AID 607; active means well fitted activation curve with a large enough effect in the main read-out, with a control signal flat, not every such curve was filed as active; inconclusive means small, poorly fitted or top-dose-only effect, or effect the other way, or a change in a side signal; further: potency means the concentration at half of the fitted maximal effect); conditions: HEK293 ACTOne CNG channel cells, membrane potential fluorescence; activation (PDE inhibition): at 22.9 µM (top of the series)
# Procedure, shortened: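 ACTOne HEK293 cells carry a modified cAMP-gated CNG channel and express endogenous PDE4; plated 1000 cells/well, compounds up to 22.9 uM final. Membrane-potential dye fluorescence (ex 535/em 590) was read; parental cells received 10 uM forskolin + 100 uM RO 20-1724.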
# [24] = target: Cytochrome P450 2D6 (Homo sapiens) (UniProt P10635); assay: qHTS Assay for Inhibitors and Substrates of Cytochrome P450 2D6 (AID 891); further: potency means the concentration at half of the fitted maximal effect; nearly all actives have a fitted effect of over 60% in size
# Procedure, shortened: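 Human CYP2D6 (5 nM) with 30 uM Luciferin-ME EGE (at Km) in 100 mM KPO4, compound preincubated 10 min, then NADPH regeneration system for 60 min at room temperature. Luciferin read by luminescence; normalized to 1.43 uM quinidine.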
# [25] = Quantitative high throughput screen for delayed death inhibitors of the malarial parasite plastid, 96 hour incubation (AID 488745); further: potency means the concentration at half of the fitted maximal effect; nearly all actives have a fitted effect of over 70% in size
# Procedure, shortened: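 Growth of reporter-bearing P. falciparum in red cells is measured after 96 h with compound, covering two erythrocytic cycles. Luminescence from the integrated luciferase serves as the growth signal.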
smiles,measurement,setting,value
O=c1c(-c2ccc(F)cc2)nc2cnc(Oc3ccccc3)nc2n1Cc1cccs1,"activity, negative = inhibition",[1],inactive: 1.3%
same,Potency,[2],"inconclusive: 2.51 µM [inhibitor, full curve, poor fit]"
same,Potency,[3],inactive
same,Potency,[4],inactive
same,Potency,[5],active: 3.16 µM
C[C@H]1CC2[C@@H]3CCC4=CC(=O)C=C[C@]4(C)[C@@]3(Cl)[C@@H](O)C[C@]2(C)[C@@]1(O)C(=O)CO (some centres undefined),"activity change, negative = inhibition",[3],inconclusive: -4.07%
same,Potency,[6],"inconclusive: 12.6 µM [inhibitor, partial curve]"
same,Potency,[7],"inconclusive: 12.6 µM [inhibitor, partial curve, poor fit]"
same,Potency,[8],inactive
same,Potency,[9],"inconclusive: 11.2 µM [inhibitor, partial curve]"
same,Potency,[10],"inconclusive: 14.1 µM [inhibitor, partial curve, poor fit]"
same,Potency,[11],"inconclusive: 100 nM [inhibitor, full curve, poor fit]"
O=c1ccc2ccc(O)cc2o1,Potency,[3],inactive
same,Potency,[12],"inconclusive: 25.1 µM [activator, partial curve, poor fit]"
same,Potency,[13],"inconclusive: 25.1 µM [inhibitor, partial curve, poor fit]"
same,Potency,[14],inactive
same,Potency,[15],active: 7.08 µM
same,Potency,[16],"inconclusive: 22.4 µM [inhibitor, partial curve]"
same,Potency,[17],inactive
same,activation,[18],inactive: 3.24%
Cn1c(=O)c(-c2ccc(Cl)cc2)nc2cnc(N3CCNCC3)nc21,"activity change, negative = inhibition",[19],inconclusive: 132% [activator]
same,"activity change, negative = inhibition",[20],active: 204% [activator]
same,"activity, negative = inhibition",[1],inconclusive: 261% [activator]
same,Potency,[21],"inconclusive: 3.16 µM [fluorescent, side channel, single point]"
same,"activity change, negative = inhibition",[3],inconclusive: 6.23%
same,Potency,[22],inactive
COc1ncc2nc(-c3ccc(F)cc3)c(=O)n(CCc3ccccc3)c2n1,"activity change, negative = inhibition",[3],inconclusive: 8.24%
same,Potency,[4],inactive
COc1cccc(Nc2ncc3nc(C)c(=O)n(Cc4cccs4)c3n2)c1,"activity change, negative = inhibition",[19],inconclusive: -37.9% [inhibitor]
same,Potency,[23],"inconclusive: 10 µM [activator, partial curve]"
same,Potency,[21],"inconclusive: 5.01 µM [fluorescent, side channel, single point]"
same,Potency,[3],inactive
same,Potency,[22],inactive
COc1ncc2nc(-c3ccccc3)c(=O)n(-c3ccccc3)c2n1,Potency,[23],"inconclusive: 6.31 µM [activator, partial curve]"
same,Potency,[3],inactive
same,Potency,[22],inactive
O=c1c(-c2cccc(F)c2)nc2cncnc2n1Cc1ccccc1Cl,"activity change, negative = inhibition",[20],inactive: -7.87%
same,Potency,[23],"inconclusive: 5.01 µM [activator, partial curve]"
same,"activity change, negative = inhibition",[3],inconclusive: 5.24%
same,Potency,[4],inactive
COc1ncc2nc(-c3ccc(Cl)cc3)c(=O)n(Cc3cccs3)c2n1,Potency,[24],"inconclusive: 2.51 µM [inhibitor, full curve]"
same,Potency,[21],"inconclusive: 3.16 µM [activator, single point]"
same,"activity change, negative = inhibition",[3],inconclusive: 6.91%
same,Potency,[22],inactive
CC(C)(C)NCC(O)COc1nsnc1N1CCOCC1 (centres undefined),"activity change, negative = inhibition",[3],inconclusive: -0.596%
same,Potency,[6],"inconclusive: 0.355 µM [inhibitor, partial curve]"
same,Potency,[7],"inconclusive: 10 µM [inhibitor, partial curve]"
same,Potency,[9],"inconclusive: 11.2 µM [inhibitor, partial curve]"
same,Potency,[11],"inconclusive: 3.2 nM [inhibitor, full curve, poor fit]"
same,Potency,[25],"inconclusive: 46.5 nM [activator, full curve, poor fit]"
COc1ccccc1CCn1c(=O)c(-c2cccs2)nc2cncnc21,"activity change, negative = inhibition",[20],inactive: -5.89%
same,Potency,[23],"inconclusive: 6.31 µM [activator, partial curve]"
same,Potency,[24],"inconclusive: 2.51 µM [inhibitor, partial curve]"
same,"activity change, negative = inhibition",[3],inconclusive: 0.836%
same,Potency,[22],"inconclusive: 11.2 µM [falling, partial curve]"
CN1CCN(c2ncc3nc(-c4cn(C)c5ccccc45)c(=O)n(CCc4ccccc4)c3n2)CC1,"activity change, negative = inhibition",[19],inconclusive: 39.8% [activator]
same,"activity change, negative = inhibition",[20],inconclusive: 56.9% [activator]
same,Potency,[21],active: 3.16 µM
same,"activity change, negative = inhibition",[3],inconclusive: -4.28%
same,Potency,[4],inactive
FC(F)(F)c1ccccc1-c1cncnc1NCc1cccs1,"activity change, negative = inhibition",[20],inconclusive: -36.6% [inhibitor]
same,Potency,[23],"inconclusive: 7.94 µM [activator, partial curve]"
same,"activity change, negative = inhibition",[3],inconclusive: 2.23%
same,Potency,[22],inactive

# From PubChem BioAssay (NCATS)
